# No constants are given. Whether binding was seen depends on the method and setting. In cells and extracts the contact can be indirect. Some results given as binding are weak or reduced against the parent protein; the word gives no strength. Where a sequence is shown, tags or fusion partners need not be part of it.
# T1: GFP-tagged HELQ (U2OS) (human) (UniProt Q8TDG4)
# T1 sequence: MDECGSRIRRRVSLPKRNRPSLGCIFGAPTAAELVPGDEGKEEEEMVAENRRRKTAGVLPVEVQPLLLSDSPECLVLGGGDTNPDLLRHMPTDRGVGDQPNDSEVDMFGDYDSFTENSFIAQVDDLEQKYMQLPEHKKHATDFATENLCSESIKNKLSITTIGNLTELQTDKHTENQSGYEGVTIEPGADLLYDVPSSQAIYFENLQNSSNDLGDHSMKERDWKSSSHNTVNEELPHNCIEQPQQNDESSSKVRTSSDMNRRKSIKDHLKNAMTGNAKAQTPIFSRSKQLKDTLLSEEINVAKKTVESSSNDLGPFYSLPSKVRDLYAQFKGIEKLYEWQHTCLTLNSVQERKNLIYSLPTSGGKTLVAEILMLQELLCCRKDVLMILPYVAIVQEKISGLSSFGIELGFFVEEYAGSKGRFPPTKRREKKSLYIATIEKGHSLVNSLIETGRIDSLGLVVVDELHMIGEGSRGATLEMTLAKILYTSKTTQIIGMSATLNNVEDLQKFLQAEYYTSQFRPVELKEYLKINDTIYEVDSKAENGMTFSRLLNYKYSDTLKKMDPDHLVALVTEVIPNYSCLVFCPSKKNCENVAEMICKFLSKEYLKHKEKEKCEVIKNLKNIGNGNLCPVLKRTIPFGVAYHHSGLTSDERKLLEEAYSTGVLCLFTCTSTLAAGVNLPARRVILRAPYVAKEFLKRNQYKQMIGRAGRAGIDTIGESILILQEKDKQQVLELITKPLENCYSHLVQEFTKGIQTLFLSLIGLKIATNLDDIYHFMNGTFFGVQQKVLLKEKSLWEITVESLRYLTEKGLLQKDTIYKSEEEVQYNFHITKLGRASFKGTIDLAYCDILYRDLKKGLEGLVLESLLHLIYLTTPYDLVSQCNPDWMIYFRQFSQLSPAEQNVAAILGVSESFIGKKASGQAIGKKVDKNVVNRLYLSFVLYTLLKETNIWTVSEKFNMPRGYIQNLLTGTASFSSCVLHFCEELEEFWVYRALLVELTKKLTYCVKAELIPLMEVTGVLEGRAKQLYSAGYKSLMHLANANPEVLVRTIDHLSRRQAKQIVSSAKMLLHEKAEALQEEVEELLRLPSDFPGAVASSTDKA
# B1: DsRed-Monomer-tagged RAD51B (U2OS) (protein, UniProt O15315 1-384)
# chain: MGSKKLKRVGLSQELCDRLSRHQILTCQDFLCLSPLELMKVTGLSYRGVHELLCMVSRACAPKMQTAYGIKAQRSADFSPAFLSTTLSALDEALHGGVACGSLTEITGPPGCGKTQFCIMMSILATLPTNMGGLEGAVVYIDTESAFSAERLVEIAESRFPRYFNTEEKLLLTSSKVHLYRELTCDEVLQRIESLEEEIISKGIKLVILDSVASVVRKEFDAQLQGNLKERNKFLAREASSLKYLAEEFSIPVILTNQITTHLSGALASQADLVSPADDLSLSEGTSGSSCVIAALGNTWSHSVNTRLILQYLDSERRQILIAKSPLAPFTSFVYTIKEEGLVLQETTFCSVTQAELNWAPEILPPQPPEQLGLQMCHHTQLIF
# Molecular target: T1, GFP-tagged HELQ (U2OS) (human)
# Experiment: co-IP; U2OS co-transfected; whole-cell extract; anti-GFP agarose; immunoblotting (Supplementary Fig. S2)
binder,measurement,value
B1,binding,binds

# Reference: paper PMC3778836
